Laboratory results from PMC4296509.
Results are given in words; binding and its absence hold for the method and conditions named. Binding seen in cells or lysates may run through a third protein. Binding calls can cover weak binding; strength is not graded here. Sequences can lack the tags named with a protein.

By UniProt entry, the sequences of proteins in these tests, tags left out. Where a name states a change or a piece, a line headed by the entry shows the natural chain unless it says otherwise.
UniProt Q9TXM1: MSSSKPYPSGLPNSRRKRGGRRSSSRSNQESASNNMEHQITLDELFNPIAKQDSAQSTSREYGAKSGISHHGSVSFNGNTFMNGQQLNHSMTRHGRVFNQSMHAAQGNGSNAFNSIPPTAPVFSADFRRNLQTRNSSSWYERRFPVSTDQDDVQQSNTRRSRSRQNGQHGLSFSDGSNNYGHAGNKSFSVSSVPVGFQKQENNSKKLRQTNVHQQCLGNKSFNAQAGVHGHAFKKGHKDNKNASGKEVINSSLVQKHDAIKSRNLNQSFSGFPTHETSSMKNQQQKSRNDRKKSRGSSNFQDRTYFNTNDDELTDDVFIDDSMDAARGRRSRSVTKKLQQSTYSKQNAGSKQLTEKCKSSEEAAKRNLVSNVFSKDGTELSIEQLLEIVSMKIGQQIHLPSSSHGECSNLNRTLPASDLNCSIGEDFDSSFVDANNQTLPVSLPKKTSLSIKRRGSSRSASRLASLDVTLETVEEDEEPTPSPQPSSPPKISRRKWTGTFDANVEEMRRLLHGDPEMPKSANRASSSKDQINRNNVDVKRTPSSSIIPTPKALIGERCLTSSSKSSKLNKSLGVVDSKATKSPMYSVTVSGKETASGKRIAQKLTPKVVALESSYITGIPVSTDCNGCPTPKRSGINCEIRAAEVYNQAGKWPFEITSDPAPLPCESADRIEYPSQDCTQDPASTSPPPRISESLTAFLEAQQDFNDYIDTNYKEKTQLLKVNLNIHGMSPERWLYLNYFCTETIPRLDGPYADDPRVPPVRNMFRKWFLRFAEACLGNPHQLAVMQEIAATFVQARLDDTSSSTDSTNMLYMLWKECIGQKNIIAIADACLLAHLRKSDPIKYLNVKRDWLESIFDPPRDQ
UniProt Q9TZK8: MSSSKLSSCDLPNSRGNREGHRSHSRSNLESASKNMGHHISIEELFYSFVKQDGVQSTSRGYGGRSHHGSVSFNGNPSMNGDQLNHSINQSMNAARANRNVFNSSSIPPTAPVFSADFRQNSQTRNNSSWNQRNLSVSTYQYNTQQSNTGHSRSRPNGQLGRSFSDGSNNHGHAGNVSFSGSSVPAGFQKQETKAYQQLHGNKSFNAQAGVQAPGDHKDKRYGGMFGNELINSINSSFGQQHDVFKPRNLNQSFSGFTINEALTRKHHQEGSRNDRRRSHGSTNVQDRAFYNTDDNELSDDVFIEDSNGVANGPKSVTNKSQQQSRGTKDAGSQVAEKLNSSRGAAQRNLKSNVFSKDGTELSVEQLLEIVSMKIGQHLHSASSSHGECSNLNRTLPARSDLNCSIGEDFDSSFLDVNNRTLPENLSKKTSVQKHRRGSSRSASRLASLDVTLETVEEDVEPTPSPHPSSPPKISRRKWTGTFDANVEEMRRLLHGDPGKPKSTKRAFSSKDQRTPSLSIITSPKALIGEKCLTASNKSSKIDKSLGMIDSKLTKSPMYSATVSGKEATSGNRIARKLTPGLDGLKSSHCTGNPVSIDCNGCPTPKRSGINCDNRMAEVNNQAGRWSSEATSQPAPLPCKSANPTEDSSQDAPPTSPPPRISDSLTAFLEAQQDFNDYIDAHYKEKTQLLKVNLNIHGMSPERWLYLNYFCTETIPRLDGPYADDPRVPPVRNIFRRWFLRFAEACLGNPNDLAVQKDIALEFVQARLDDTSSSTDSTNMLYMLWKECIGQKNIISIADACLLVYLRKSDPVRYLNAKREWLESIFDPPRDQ

Assays:
[1] = biological target: GST fusion of MEG-3 (C. elegans) (UniProt Q9TXM1); assay: pull-down; GST fusions bound to GST beads and washed; incubated with MBP fusions (E. coli lysates) at 4°C for 1 hr in 50 mM Hepes pH 7.4, 1 mM EGTA, 1 mM MgCl2, 500 mM KCl, 10% glycerol, 0.05% NP-40; eluted with 10 mM reduced glutathione; Western; only the target purified
[2] = biological target: GST fusion of MEG-4 (C. elegans) (UniProt Q9TZK8); assay: as above

Binder | binding [1] | binding [2]
MBP fusion of PGL-1 (protein, UniProt Q9TZQ3 1-730) MEANKREIVDFGGLRSYFFPNLAHYITKNDEELFNNTSQANKLAAFVLGASKDAPGDEDILEMILPNDANAAVIAAGMDVCLLLGDKFRPKFDAAAEKLSGLGHAHDLVSVIDDDKKLGMLARKAKLKKTEDAKILQALLKVIAIDDAAEKFVELTELVSQLDLDFDVYVLTKILGLISEETSDEVDIIRDNVVNAFDSCKPLLKQLMLDGPKSEPADPFISLLMDPLEESVGKVVNHIAQLFEEASKNEGDESLVLRSQLGYQLFFLIVRSLADGKREVSKKILSGIPTSVRAEVFPGLQRSVYKSAVFLGNHIIQVLLGSKKSFEDWDVVGVAKDLESAWKRRAIAELIKKFQVSILEQCFDKPVPLIPQSPLNNDAVIDNVNKALQFALWLTEFYGSENETEALGELRFLDSTSKNLLVDSFKKFVQGINSKTHVTRIVESLEKCCLSDTPSGRKSNVQPSTSQQQDSAYTKEEMTTVHNTYSVNTKAQVLNGLSDTNSSGLLVDSKDSLSLQEISCDEVDSSTLLSSSRNIGEGVTVKAVDPVPEKVNDAQQQQTVNEIEMASDANQDTSSSASPEVAPSFSTDGWDSPTKSVALPPGMQQIDEEETTVADKDSTPQPQARAETAWGSGDATPMPLPAPTNQYKVSGFGEAKVAKGFGQFAPTSSAYGGGGGRGGYGGGDRGGRGGYGGDRGGRGGYGGGDRGGRGGYGGDRGRGGYGGRGGRGGF | binds | binds
MBP fusion of PAA-1, the scaffolding subunit of PP2A (protein, UniProt Q09543 1-590) MSVVEEATDDALYPIAVLIDELRNEDVTLRLNSIRKLSTIALALGVERTRNELIQFLTDTIYDEDEVLLVLAEQLGNFTPLVGGPDHVHCLLLPLENLATVEETVVRDKAVESLRKIADKHSSASLEEHFVPMLRRLATGDWFTSRTSACGLFSVVYPRVSPAIKSELKSMFRTLCRDDTPMVRRAAAAKLGEFAKVFEKTAVIEGLHSSLTDLHVDEQDSVRLLTVESAIAFGTLLDKANKKKLIEPILIELFDDKSWRVRYMVAEKLIEIQNVLGEDMDTTHLVNMYTNLLKDPEGEVRCAATQRLQEFALNLPEDKRQNIICNSLLNVAKELVTDGNQLVKSELAGVIMGLAPLIGKEQTVSELLPIYMQLLNDQTPEVRLNIISSLDKVNEVIGAAQLSTSLLPAIVGLAEDGKWRVRLAIVQFMPLLASQLGQEFFDEKLLPLCLNWLTDHVFSIREASTLIMKELTQKFGGQWASTNIVPKMQKLQKDTNYLQRMTCLFCLNTLSEAMTQEQILKEIMPIVKDLVEDDVPNVRFNAAKSLKRIGKNLTPSTLTSEVKPLLEKLGKDSDFDVRYFSEEAKNSLGL | no binding | no binding
